{"source": "PubChem BioAssay AID504834", "about": "(National Center for Advancing Translational Sciences (NCATS), 2011)", "note": "In all, about 320,000 compounds went through this assay and about 22,000 (6.9%) were called active. Inconclusive means that the source gave no clear call. Such entries were picked first, then a sample of the others. Calls follow the shape of the dose curve; as a rule, active = well fitted inhibition curve with a large enough effect; inconclusive = small, poorly fitted or top-dose-only effect, or another doubt; inactive = no such curve, though single readings can be large or run the other way. Potencies of inconclusive entries are doubtful fits and often do not repeat. % is scaled to controls: 0 for no effect and ±100 for the full control effect; potency is read from the fitted curve at half-maximal effect.", "data": [{"assay": "Primary qHTS for delayed death inhibitors of the malarial parasite plastid, 96 hour incubation", "settings": "P. falciparum luciferase reporter growth; series mostly up to 28.7 µM; activity change, negative = inhibition: at the top concentration", "method_in_brief": "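Two-generation exposure (96 h) targets delayed-death phenotype. Reporter parasites carrying integrated firefly luciferase, in red cells at 2% hematocrit and 0.05% parasitemia final, kept at 37 C, 5% CO2; luminescence loss indicates inhibition.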", "values": [{"smiles": "O=C(OCc1nc2ccsc2c(=O)[nH]1)c1cc(Br)c(Br)s1", "Potency": "inconclusive: 14.7 µM [inhibitor, single point]"}, {"smiles": "Cc1ccc(-n2nc3c(c2NC(=O)c2ccc(OC(C)C)cc2)CS(=O)C3)cc1", "note": "(centres undefined)", "Potency": "inconclusive: 0.0029 µM [inhibitor, full curve, poor fit]"}, {"smiles": "CCC(CC)NC(=O)Nc1ccccc1C(F)(F)F", "activity change, negative = inhibition": "inactive: 20.4%"}, {"smiles": "Cc1csc2nc(CNS(=O)(=O)c3ccc(-c4ccccc4)cc3)cn12", "Potency": "inconclusive: 10.4 µM [inhibitor, single point]"}, {"smiles": "C=CCn1c(-c2cccn(Cc3ccc(Cl)cc3Cl)c2=O)n[nH]c1=S", "Potency": "inconclusive: 18.5 µM [inhibitor, single point]"}, {"smiles": "COc1ccc(OC)c(CN(CCN2CCOCC2)S(=O)(=O)c2ccc(NC(C)=O)cc2)c1", "Potency": "inconclusive: 7.38 µM [inhibitor, partial curve, poor fit]"}, {"smiles": "O=C(Cc1ccccc1)Nc1ccccc1N1CCCC1", "Potency": "inconclusive: 13.1 µM [inhibitor, partial curve, poor fit]"}, {"smiles": "CC(Oc1ccc(Br)cc1)C(=O)NCC(c1ccco1)N1CCCCC1", "note": "(centres undefined)", "Potency": "inconclusive: 13.1 µM [inhibitor, single point]"}, {"smiles": "Brc1ccc(NCc2nnc3n2CCCCC3)cc1", "Potency": "inconclusive: 2.62 µM [inhibitor, full curve]"}, {"smiles": "Cc1ccc(Br)cc1S(=O)(=O)Nc1cccnc1", "Potency": "inconclusive: 13.1 µM [inhibitor, single point]"}, {"smiles": "CC(=O)Nc1ccc(S(=O)(=O)NCCCc2ccccc2)cc1", "activity change, negative = inhibition": "inactive: -6.33%"}, {"smiles": "CCOc1ccc(Cl)cc1CNCCNCCO", "Potency": "inconclusive: 18.5 µM [inhibitor, single point]"}, {"smiles": "OC(CNCC1CCCO1)Cn1c2ccc(Br)cc2c2cc(Br)ccc21", "note": "(centres undefined)", "Potency": "inconclusive: 18.5 µM [inhibitor, single point]"}, {"smiles": "Cc1ccc2c(=O)c(C(=O)c3ccc(F)cc3)cn(CC(=O)NCc3ccco3)c2n1", "Potency": "inconclusive: 10.4 µM [inhibitor, partial curve, poor fit]"}, {"smiles": "CCCCSCCCNC(=O)c1ccc(CS(=O)(=O)c2ccc(OC)cc2)o1", "Potency": "inconclusive: 9.28 µM [inhibitor, partial curve, poor fit]"}, {"smiles": "Cc1cc(OCCN2CCCCCC2)ccc1[N+](=O)[O-]", "activity change, negative = inhibition": "inactive: 25.4%"}, {"smiles": "COc1cccc(-c2cc(C(=O)NCC3CCCO3)on2)c1", "note": "(centres undefined)", "Potency": "inconclusive: 16.5 µM [inhibitor, single point]"}, {"smiles": "CCOC(=O)CC(=O)CSc1ncc(C(=O)OCC)c(N)n1", "activity change, negative = inhibition": "inactive: 9.96%"}, {"smiles": "COc1ccc(CCN2CC(C(=O)N(C)Cc3ccc4nsnc4c3)CCC2=O)cc1", "note": "(centres undefined)", "Potency": "inconclusive: 16.5 µM [inhibitor, single point]"}, {"smiles": "Clc1cccc(CN2CCN(Cc3nc(CCc4ccccc4)no3)CC2)c1", "Potency": "inconclusive: 4.65 µM [inhibitor, partial curve, poor fit]"}, {"smiles": "CCO[C@@H]1OC(C(=O)NCc2ccccc2)=C[C@H](C2CCCCC2)[C@H]1CCCO", "Potency": "active: 9.28 µM"}, {"smiles": "Cc1cc(Br)ccc1SCC(=O)NCC(c1ccco1)N1CCCCC1", "note": "(centres undefined)", "Potency": "inconclusive: 18.5 µM [inhibitor, single point]"}, {"smiles": "CC(=O)Oc1cccc(C(=O)Nc2cccc(C(=O)Nc3ccccc3C(=O)O)c2)c1", "Potency": "inconclusive: 18.5 µM [inhibitor, single point]"}, {"smiles": "COc1cc(/C=C(/NC(=O)c2ccccc2)C(=O)Nc2ccc(O)cc2)c([N+](=O)[O-])cc1OC", "Potency": "active: 10.4 µM"}, {"smiles": "Cc1c(NC(=O)C(C)C)cccc1-c1nc2ncccc2o1", "Potency": "active: 9.28 µM"}, {"smiles": "CN(C)c1nc(C(N)=O)nc(N2CCOCC2)n1", "activity change, negative = inhibition": "inactive: -24.3%"}, {"smiles": "O=C(NC(Cc1ccccc1)C(=O)O)c1ccc(S(=O)(=O)N2CCCCC2)cc1", "note": "(centres undefined)", "Potency": "inconclusive: 20.8 µM [inhibitor, single point]"}, {"smiles": "O=C(Nc1cccc(C(=O)Nc2ccc(Cl)cn2)c1)c1ccccc1", "Potency": "inconclusive: 18.5 µM [inhibitor, single point]"}, {"smiles": "Cc1ccc(-n2c(Cn3ncc4ccccc4c3=O)n[nH]c2=S)cc1", "activity change, negative = inhibition": "inactive: -12%"}, {"smiles": "O=C(CN1CCN(C(C(=O)Nc2ccc(F)cc2)c2ccccc2)CC1)NC1CC1", "note": "(centres undefined)", "Potency": "active: 14.7 µM"}, {"smiles": "O=C(Nc1ccccc1F)c1ccc(Cn2cc(Br)cn2)cc1", "Potency": "inconclusive: 2.62 µM [inhibitor, full curve]"}, {"smiles": "COc1ccccc1CN(Cc1ccco1)S(=O)(=O)c1ccc(-n2cnnn2)c(OC)c1", "Potency": "inconclusive: 16.5 µM [inhibitor, single point]"}, {"smiles": "CCCC1=[N+](CC(=O)c2ccccc2)CCn2cccc21", "activity change, negative = inhibition": "inactive: -4.48%"}, {"smiles": "COc1ccc(C2CC(c3ccc4ccccc4c3OC(C)=O)=NN2C(=O)/C=C/c2ccccc2)cc1", "note": "(centres undefined)", "Potency": "inconclusive: 14.7 µM [inhibitor, partial curve, poor fit]"}, {"smiles": "COc1ccccc1NC(=O)CSc1nnc(C)n1CC1CCCO1", "note": "(centres undefined)", "activity change, negative = inhibition": "inactive: 0.0774%"}, {"smiles": "CCCOc1ccc(C(=O)Nc2cc(S(=O)(=O)N3CCOCC3)ccc2N2CCOCC2)cc1", "Potency": "inconclusive: 10.4 µM [inhibitor, partial curve, poor fit]"}, {"smiles": "CNC(=O)c1ccccc1NC(=O)c1ccco1", "Potency": "inconclusive: 18.5 µM [inhibitor, single point]"}, {"smiles": "O=S(=O)(c1ccc(F)cc1)n1cnc2ccccc21", "Potency": "inconclusive: 16.5 µM [inhibitor, single point]"}, {"smiles": "O=C(CNC(=O)c1ccccc1)OCc1nc2ccccc2s1", "activity change, negative = inhibition": "inactive: 120%"}, {"smiles": "Cc1cc(C)c(NC(=O)CN2CCC(NC(=O)NC3CCCCC3)CC2)c(C)c1", "activity change, negative = inhibition": "inactive: 65.4%"}, {"smiles": "NS(=O)(=O)c1ccc(N=Nc2c(=O)[nH]n3c(=O)c4c([nH]c23)CCCC4)cc1", "Potency": "active: 2.33 µM"}, {"smiles": "Cn1c(SCC(=O)NC2CC2)nnc1-c1ccccc1Cl", "Potency": "inconclusive: 14.7 µM [inhibitor, single point]"}, {"smiles": "C=CCn1c(SCC(=O)Nc2ccc(O)cc2)nc2sc(CC)cc2c1=O", "Potency": "inconclusive: 4.15 µM [inhibitor, partial curve]"}, {"smiles": "O=C(NC1CC1)C1=C[C@@H](c2ccc3c(c2)OCO3)C[C@@H](OCc2ccc(CO)cc2)O1", "activity change, negative = inhibition": "inactive: 12.7%"}, {"smiles": "CC(=O)Nc1ccc(NS(=O)(=O)c2ccc3c(c2)oc(=O)n3C)cc1", "activity change, negative = inhibition": "inactive: 3.84%"}, {"smiles": "COc1ccc(N2C(=O)CC(Sc3nccc(C)n3)C2=O)cc1", "note": "(centres undefined)", "Potency": "inconclusive: 14.7 µM [inhibitor, single point]"}, {"smiles": "Cc1ccc2nc3c(cc2c1)c(C)nn3-c1ccccc1", "Potency": "inconclusive: 13.1 µM [inhibitor, single point]"}, {"smiles": "COc1ccc(-c2c(=O)n(OCc3nc4ccccc4[nH]3)c3ccccc3[n+]2[O-])cc1", "activity change, negative = inhibition": "inactive: 0%"}, {"smiles": "Cc1cccc(-c2c3c(=O)n(C)c(=O)n(C)c3cn2C(C)(C)C)c1", "Potency": "inconclusive: 8.28 µM [inhibitor, partial curve, poor fit]"}, {"smiles": "COC(=O)C1=C(C)OC(N)=C(C#N)C1c1ccccc1F", "note": "(centres undefined)", "activity change, negative = inhibition": "inactive: 38.6%"}, {"smiles": "Cc1ccc(-c2csc(N=C(N)N)n2)c(C)c1", "Potency": "inconclusive: 18.5 µM [inhibitor, single point]"}, {"smiles": "CCOC(=O)c1ccc(NC(=O)C2CCC(CNc3c(N4CCOCC4)c(=O)c3=O)CC2)cc1", "note": "(centres undefined)", "Potency": "inconclusive: 0.738 µM [inhibitor, full curve]"}, {"smiles": "CCCOC(=O)COc1cc(C)cc2oc(=O)c3c(c12)CCC3", "Potency": "inconclusive: 18.5 µM [inhibitor, single point]"}, {"smiles": "Cc1ccc(OCCCC(=O)Nc2ccc(N3CCOCC3)cc2)cc1", "Potency": "inconclusive: 0.0033 µM [inhibitor, full curve, poor fit]"}, {"smiles": "CC1Cc2cc(/C(O)=C3\\C(=O)C(=O)N(Cc4ccncc4)C3c3ccccc3F)ccc2O1", "note": "(centres undefined)", "Potency": "inconclusive: 9.28 µM [inhibitor, single point]"}, {"smiles": "CC(NCC(=O)Nc1ccccc1C(=O)NC1CC1)c1cccc(C(F)(F)F)c1", "note": "(centres undefined)", "Potency": "inconclusive: 13.1 µM [inhibitor, single point]"}, {"smiles": "CCOC(=O)Cc1csc(NC(=O)Nc2ccc(Cl)cc2)n1", "Potency": "inconclusive: 13.1 µM [inhibitor, single point]"}, {"smiles": "COC(=O)c1nn(-c2nc(-c3cccc(OC)c3)cc(C(F)(F)F)n2)cc1[N+](=O)[O-]", "Potency": "inconclusive: 14.7 µM [inhibitor, single point]"}, {"smiles": "COc1cc(F)ccc1S(=O)(=O)N1CCN(C23CC4CC(CC(C4)C2)C3)CC1", "Potency": "inconclusive: 0.0037 µM [inhibitor, full curve, poor fit]"}, {"smiles": "COc1ccc(CCNC(=O)COC(=O)c2cc(OC)c(OC)cc2OC)cc1OC", "activity change, negative = inhibition": "inactive: -4.38%"}, {"smiles": "CN(C)c1nc(SCC(=O)Nc2ccccc2)nc(N2CCOCC2)n1", "Potency": "inconclusive: 11.7 µM [inhibitor, single point]"}, {"smiles": "C/C(=N\\NC(=O)COc1ccc(C(C)(C)C)cc1)c1ccc(OC(F)F)cc1", "Potency": "inconclusive: 13.1 µM [inhibitor, single point]"}, {"smiles": "N#CCCCn1c(-c2ccccc2)noc1=O", "Potency": "active: 3.7 µM"}, {"smiles": "C/C(=N\\NC(=O)c1ccc(NS(=O)(=O)c2cccs2)cc1)c1ccc(C(C)(C)C)cc1", "Potency": "inconclusive: 4.65 µM [inhibitor, partial curve, poor fit]"}, {"smiles": "Cc1[nH]c2ccccc2c1C1(O)C(=O)N(Cc2ccc3c(c2)OCO3)c2ccccc21", "note": "(centres undefined)", "Potency": "active: 13.1 µM"}, {"smiles": "O=C(Nc1nc2ccccc2[nH]1)c1cccc([N+](=O)[O-])c1", "activity change, negative = inhibition": "inactive: 8.16%"}, {"smiles": "O=C(CCNC(=O)c1ccc([N+](=O)[O-])cc1)Nc1ccc(Cl)c(S(=O)(=O)N2CCOCC2)c1", "Potency": "inconclusive: 6.57 µM [inhibitor, partial curve]"}, {"smiles": "O=C(/C=C/Nc1cccc(C(F)(F)F)c1)C(F)(F)F", "activity change, negative = inhibition": "inactive: 47.5%"}, {"smiles": "COc1ccc(N2C(C(C)=O)=NN(c3ccccc3)C2c2cccs2)cc1", "note": "(centres undefined)", "Potency": "active: 11.7 µM"}]}]}
